Reference: article PMC10606770
These are yes or no findings as the source states them, for the method shown. Binding seen in cells or lysates may run through a third protein. Some binding calls cover weakened binding; strength is not graded here.

Sequences of proteins named here, by UniProt entry; tags and fusion partners are left off. Residues count along the entry.
UniProt P23819, residues 25-883: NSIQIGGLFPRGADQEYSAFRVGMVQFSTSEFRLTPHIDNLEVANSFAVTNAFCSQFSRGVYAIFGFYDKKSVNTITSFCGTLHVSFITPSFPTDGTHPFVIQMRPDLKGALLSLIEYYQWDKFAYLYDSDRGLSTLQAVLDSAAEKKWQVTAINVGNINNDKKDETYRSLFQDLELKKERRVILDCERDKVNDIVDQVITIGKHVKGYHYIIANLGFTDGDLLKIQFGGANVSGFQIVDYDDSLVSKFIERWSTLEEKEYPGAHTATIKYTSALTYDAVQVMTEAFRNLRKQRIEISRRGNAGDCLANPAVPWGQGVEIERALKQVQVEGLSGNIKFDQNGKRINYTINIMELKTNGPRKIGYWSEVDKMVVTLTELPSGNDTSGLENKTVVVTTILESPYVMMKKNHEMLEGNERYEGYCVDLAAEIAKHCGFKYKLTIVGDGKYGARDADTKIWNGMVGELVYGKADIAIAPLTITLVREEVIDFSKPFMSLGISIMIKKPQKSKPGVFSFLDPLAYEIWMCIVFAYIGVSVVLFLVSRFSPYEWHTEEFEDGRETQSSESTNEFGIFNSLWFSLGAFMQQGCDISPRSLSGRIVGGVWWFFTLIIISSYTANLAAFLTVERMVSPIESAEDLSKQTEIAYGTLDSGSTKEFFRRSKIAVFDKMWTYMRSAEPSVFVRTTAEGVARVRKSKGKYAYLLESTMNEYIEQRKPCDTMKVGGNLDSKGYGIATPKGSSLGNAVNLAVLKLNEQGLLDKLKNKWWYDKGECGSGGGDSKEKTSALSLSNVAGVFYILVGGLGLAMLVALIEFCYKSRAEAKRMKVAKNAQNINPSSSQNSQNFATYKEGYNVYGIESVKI

Biological target: Glutamate ionotropic receptor AMPA type subunit 2 (GRIA2/GluA2) (mouse (endogenous in mouse brain)) (UniProt P23819)
Experiment: co-IP; synaptosomes (P2) from whole mouse brain in Syn-PER reagent and co-IP buffer (150 mM NaCl, 10 mM Tris-HCl pH 7.4, 1 mM EDTA, 1 mM EGTA, Triton X-100 1%, NP-40 0.5%), on ice and at 4 °C; 2.88 µg primary antibody, Protein A magnetic beads; Western blot

binding: binds
B1: Ubiquitin-specific protease 53 (USP53) (protein, UniProt P15975 1-1069)
chain: MAWVKFLRKPSGNLGKAYQAGSLLSLAPTVGLLNEPGQNSCFLNSAVQVLWQLDIFRRSLRALTGHICQGDACIFCALKTIFAQFQHSREKALPSDNIRHALAESFKDEQRFQLGLMDDAAECFENILARIHFHLVPNRDADMCTSKSCVTHQKFAMTLYEQCVCRSCGASSDPLPFTELVRYISTTALCNEVERMMERHERVKPEMFAELLQAANTADDYRKCPSNCGQKIKIRRVLMNCPEIVTIGLVWDSEHSDLTEDVVRSLATHLYLPGLFYRVTDENATDSELHLVGMICYTSRHYCAFAFHTKSSKWVFFDDAHVKEMGTRWKDVVSKCIRCHLQPLLLFYANPDGTAVSTEDALRQVVHWSHYRSGEENMGCGKPIIYKPDNSKENGFGGQTKQKENHKFQTDISSLNRSQMQTSGRRAPVKLSHDQREKIKDISRECALKAIEQKNALSSQRKDLEKGQRKDTGRHRDLVDEVLASFKSGSPPASDGFRQQGNPHLYHSQGKGPCKHDRATHESYTSGKVISSSKSQNLLVPGEKTTGKAKSDSGTGYETDSSQDSRDKGGSYSSKTKSRHRGWKPMRETLNVDSVFSESEKRQHSPRRKSDIGSRPRCSKDQSFNNWPKANPKQKGLMTIYEDEMKQEAGSRSSLETNGKGAEKNLSAAESRGPGTSWQMQRTESGYESSDHVSNGSASLDSPGVEGSGAVMDVGGGKAFSEHIKMNSHNMDSMEYISHHCKDHPEGFRKELQDLEADDKIHELHPESHVQIKSHLIKRSQIGETNDKLFPSASPQTLAREHVYQTNEHKVERPDRSKCSERHNTENSEGTGLPFHVDESSVAGKRVDSNETVSPSSLPSSVRTAGLKPETGPLMFWSQQNITEQGYSDNSLSRELTLLSACNADSCQMPKLHCHRSPPPLPPKKYSTASAPRLERVGLSPDVGVTEAFNTNPSSLPKHSLSPASGPSLEGSPCMTQERDKETIQVKQLAANSYPSSCSTNSFQPDQDSTSVCPNETISLTTYFSVDSCMTDTYRLKYHQRPKLYFPESSGHHSNNSLSQTEQVEGSIT
